Measured values taken from paper PMC12361384.
These are yes or no findings as the source states them, for the method shown. Binding seen in cells or lysates may run through a third protein. Some binding calls cover weakened binding; strength is not graded here. Sequences can lack the tags named with a protein.

Chains of the proteins cited; added tags and fusions are not shown.
UniProt P84078: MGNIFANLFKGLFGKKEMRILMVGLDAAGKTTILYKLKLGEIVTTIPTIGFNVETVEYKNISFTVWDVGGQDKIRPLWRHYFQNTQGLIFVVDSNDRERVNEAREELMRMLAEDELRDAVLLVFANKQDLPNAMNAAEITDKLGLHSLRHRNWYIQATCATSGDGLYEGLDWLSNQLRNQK

Legend:
[1] = target: ARF1-EGFP (wild-type ADP-ribosylation factor 1 fused to EGFP) (mouse (cDNA library of C2C12 cells)) (UniProt P84078); test: co-IP; IP with anti-EGFP antibody, western blot; cells co-transfected with Plin2-mCherry and ARF1-EGFP (293T by the text, C2C12 by the legend), glucose-fed or glucose-starved for 8 h
[2] = target: ARF1-EGFP (wild-type ADP-ribosylation factor 1 fused to EGFP) (mouse (cDNA library of C2C12 cells)) (UniProt P84078); test: co-IP; IP with anti-EGFP antibody, immunoblot; C2C12 cells co-transfected with Plin2-mCherry and ARF1-EGFP, glucose-fed or glucose-starved, with or without the AMPK inhibitor BAY-3827 (5 uM, 8 h)

- binding [1]: binds
- binding [2]: binds
B1: Plin2-mCherry (perilipin2 fused to mCherry) (protein, UniProt P43883 1-425)
chain: MAAAVVDPQQSVVMRVANLPLVSSTYDLVSSAYVSTKDQYPYLRSVCEMAEKGVKTVTSAAMTSALPIIQKLEPQIAVANTYACKGLDRMEERLPILNQPTSEIVASARGAVTGAKDVVTTTMAGAKDSVASTVSGVVDKTKGAVTGSVERTKSVVNGSINTVLGMVQFMNSGVDNAITKSELLVDQYFPLTQEELEMEAKKVEGFDMVQKPSNYERLESLSTKLCSRAYHQALSRVKEAKQKSQETISQLHSTVHLIEFARKNMHSANQKIQGAQDKLYVSWVEWKRSIGYDDTDESHCVEHIESRTLAIARNLTQQLQTTCQTVLVNAQGLPQNIQDQAKHLGVMAGDIYSVFRNAASFKEVSDGVLTSSKGQLQKMKESLDEVMDYFVNNTPLNWLVGPFYPQSTEVNKASLKVQQSEVKAQ
